Data as given in PubChem BioAssay AID504793 (Drosophila RNAi Screening Center, 2011).
The deposit covers about 23,000 reagents; below is an unselected part of those with a known target gene and a result. In the full data, 62 (0.27%) got an active call. 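Calls come from follow-up tests whose scores are not deposited, so confirmed genes may have low counts here; counts are not normalised per plate.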 The raw values are shown without normalisation. Unmarked entries are inactive. Reagents against one gene are numbered here.

Screen: 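Knock-downs allowing continued mitosis even though DNA is damaged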 (primary screen)
System: Drosophila S2R+ cells
Knock-down reagent: long dsRNA against Drosophila genes, about 0.25 µg dsRNA per well
Duration: 4 days of dsRNA, then 4 hours of drug before read-out
Conditions: doxorubicin 0.5 µM for 4 hours to cause double-strand breaks, in cells also given a low, harmless dose of dsRNA against nbs to sensitise the assay
Read-out: 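Per-well count of mitotic cells stained for phospho-histone H3 after doxorubicin exposure, used as mitotic index; counts are raw and not normalised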
Direction: mitotic cells: higher = more cells in mitosis, weaker G2 arrest
Active means: 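Genes are called active only when high mitotic counts were reproduced with independent dsRNAs and mitosis was checked for delay without damage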
Meaning of the calls: active = confirmed in follow-up tests; inactive = not confirmed

| gene knocked down | reagent no. | mitotic cells, replicate 1 |
| --- | --- | --- |
| Spn55B | 1 | 4 |
| Spn55B | 2 | 6 |
| Spn55B | 3 | 6 |
| CG5342 | 1 | 4 |
| CG13795 | 1 | 4 |
| cDIP | 1 | 2 |
| CapaR | 1 | 7 |
| CG1299 | 1 | 8 |
| hid | 1 | 4 |
| hid | 2 | 4 |
| CG10646 | 1 | 9 |
| Kots | 1 | 5 |
| mRpS18C | 1 | 12 |
| mRpS18C | 2 | 6 |
| barr | 1 | 24 |
| Nsun5 | 1 | 6 |
| Ctr1C | 1 | 19 |
| apt | 1 | 9 |
| apt | 2 | 4 |
| NKAIN | 1 | 4 |
| NKAIN | 2 | 18 |
| NKAIN | 3 | 5 |
| eyg | 1 | 15 |
| eyg | 2 | 7 |
| CG7420 | 1 | 5 |
| CG1958 | 1 | 18 |
| CG1958 | 2 | 7 |
| CG3106 | 1 | 6 |
| CG3106 | 2 | 7 |
| sprt | 1 | 4 |
| CG9517 (retired record) | 1 | 25 |
| CG9517 (retired record) | 2 | 14 |
| CG9517 (retired record) | 3 | 8 |
| CG10560 | 1 | 9 |
| Cpr64Ab | 1 | 5 |
| Cpr64Ab | 2 | 6 |
| CG14839 | 1 | 12 |
| CG14839 | 2 | 8 |
| Rnf146 | 1 | 6 |
| witty | 1 | 10 |
| witty | 2 | 7 |
| witty | 3 | 5 |
| CG2915 | 1 | 9 |
| SPH93 | 1 | 3 |
| CG13675 | 1 | 8 |
| Dup99B | 1 | 9 |
| Dup99B | 2 | 3 |
| CG30289 | 1 | 10 |
| promL | 1 | 7 |
| Dronc | 1 | 16 |
| RSG7 | 1 | 16 |
| RSG7 | 2 | 5 |
| CG32668 | 1 | 2 |
| CG4741 | 1 | 6 |
| CG4741 | 2 | 9 |
| CG4041 | 1 | 11 |
| CG4041 | 2 | 4 |
| CG12730 | 1 | 15 |
| CG8997 | 1 | 6 |
| CG8997 | 2 | 11 |
| shf | 1 | 11 |
| shf | 2 | 5 |
| CG3164 | 1 | 3 |
| CG31693 | 1 | 5 |
| Sirt4 | 1 | 23 |
| Sirt4 | 2 | 4 |
| Ir7d | 1 | 8 |
| CG9863 | 1 | 6 |
| Eig71Ec | 1 | 3 |
| Lcp9 | 1 | 9 |
| CG5565 | 1 | 3 |
| tho2 | 1 | 11 |
| tho2 | 2 | 5 |
| frm | 1 | 15 |
| frm | 2 | 4 |

9 consecutive records from above:
| gene knocked down | reagent no. | mitotic cells, replicate 1 |
| --- | --- | --- |
| Ir7d | 1 | 8 |
| CG9863 | 1 | 6 |
| Eig71Ec | 1 | 3 |
| Lcp9 | 1 | 9 |
| CG5565 | 1 | 3 |
| tho2 | 1 | 11 |
| tho2 | 2 | 5 |
| frm | 1 | 15 |
| frm | 2 | 4 |
